Cell number change and AC50 data for 38 compounds are collected here from PubChem BioAssay AID2685 (National Center for Advancing Translational Sciences (NCATS), 2010).

Each structure is given as a SMILES string. Some of the results follow. The main result of the screen is listed elsewhere. These columns were measured beside it and carry no call. Compounds called inactive in the main read-out are mostly missing here. The note in brackets gives the kind of curve behind each potency; many fits are weak.

The experiment can be described thus: qHTS Assay for Lipid Storage Modulators in Drosophila S3 Cells.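 For Cell number change: cells counted by Cell Tracker Red CMTPX staining in the red channel.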 To be noted: BODIPY lipid droplet fluorescence, 18-24 h; for cell number change: measured here: cell count max response, cells fed with added oleic acid. The procedure, abridged:
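Laser-scanning cytometry quantifies lipid droplet accumulation (500–530 nm total intensity; droplet/cell object ratio) in oleic acid-fed (400 uM added) Drosophila S3 cells treated with a concentration series. 20 uM Triacsin C defined 100% inhibition.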
In general terms: qHTS replaces the single test concentration by a dilution series.

The mark [1] stands for this setting: measured here: cell number channel AC50, cells fed with added oleic acid.
The mark [2] stands for this setting: measured here: lipid fluorescence (Fed channel) AC50, cells fed with added oleic acid.

Turning to `CC(OC(=O)c1cnccn1)C(=O)c1ccccc1` (stereo not given), the cell number change is -75%. Moreover, the AC50 (as a rule, the concentration giving half of the maximal activity seen) under setting [1] was 0.206 µM [falling, full curve]. Also, the AC50 under setting [2] is 0.0058 µM [rising, full curve, poor fit].

For `COc1ccc(-c2nnc(Nc3nc4c(OC)cccc4s3)o2)cc1`, the cell number change stood at 4.69%. Moreover, under setting [2], the AC50 is 29.1 µM [falling, single point]. Turning to `CCOC(=O)C1=C(C)NC2=C(C(=O)CC(c3cccs3)C2)C1c1cccs1` (stereo not given), the AC50 under setting [2] is 8.2 µM [falling, partial curve]. On to `O=C(Nc1ccc(Cl)cc1)c1ccc(OC2CSC2)cc1`, for which the cell number change is -32.4%. The AC50 under setting [1] was 7.31 µM [falling, partial curve, poor fit]. Besides, the AC50 under setting [2] is 18.4 µM [falling, single point].

Consider `CN1CCN(NC(=O)/C=C/c2cccc(Cl)c2)CC1`, for which the cell number change came to 18.8%. In addition, under setting [1], the AC50 was 0.82 µM [rising, full curve, poor fit]. Regarding `O=C(O)Cc1n[nH]c(=O)c2ccccc12`, the cell number change stood at 4.48%. Besides, under setting [2], the AC50 is 6.51 µM [rising, single point]. `CN(CCCNS(=O)(=O)c1cccc2cccnc12)Cc1ccccc1`: under setting [2], the AC50 is 0.517 µM [rising, full curve, poor fit].

On to `Cc1cccc(OCC(=O)NCC(=O)N/N=C/c2ccccc2)c1`, for which the cell number change was found to be 3.6%. Take `Cn1cc(C(=O)C(=O)NC2CCCCC2)c2ccccc21`: the cell number change turned out to be 25.4%. In addition, under setting [2], the AC50 was 5.17 µM [rising, partial curve]. `COC(=O)CSc1nnc(CCc2ccccc2)n1C`: the cell number change was -0.549%.

Consider `CN(c1cccc(NC(=O)c2ccc(C(C)(C)C)cc2)c1)S(C)(=O)=O`, for which the cell number change was -9.23%. Moreover, the AC50 under setting [2] was 18.4 µM [falling, single point].

Consider `Cc1ccc(C(=O)NCCC(=O)N2CCCC2)cc1`, for which the cell number change is -0.275%. `COc1ccc(Cc2nnc(NC(=O)C3CC(=O)N(c4ccccc4)C3)s2)cc1OC` (stereo not given): the cell number change worked out at 1.32%. In addition, under setting [2], the AC50 is 1.26 µM [rising, full curve, poor fit].

For `CCOc1cc(/C=N/Nc2cc(C)nc3ccc(C)cc23)ccc1O`, the AC50 under setting [2] was 2.59 µM [rising, single point]. Consider `Cc1occc1C(=O)NNC(=S)NCc1ccccc1`, for which the cell number change was 16.7%. Further, the AC50 under setting [2] was 0.146 µM [rising, full curve, poor fit]. Turning to `Cc1cc(OCC(=O)OCC(=O)N2c3ccccc3NC(=O)C2(C)C)ccc1Cl`, the cell number change was -6.81%. The AC50 under setting [1] is 1.03 µM [rising, full curve]. Moreover, the AC50 under setting [2] was 1.03 µM [rising, full curve].

As to `COc1cc(NC(=O)C2CC2)c(C(=O)O)cc1OC`, the cell number change stood at 4.24%. For the same compound, under setting [2], the AC50 is 6.51 µM [rising, single point]. As for `CCCc1nnc(SCC(=O)Nc2nnc(CC)s2)n1CC1CCCO1` (stereo not given), the cell number change was 6.25%. Take `CC(/C=N/NC(=O)CN1CCN(Cc2ccc(Cl)cc2)CC1)=C\c1ccco1`: the cell number change was found to be 14.9%. Besides, under setting [2], the AC50 was 0.58 µM [falling, full curve, poor fit]. Regarding `CCn1c(NCc2cc(OC)c(OC)c(OC)c2)nc2ccccc21`, the cell number change is -19%. For the same compound, the AC50 under setting [2] is 0.58 µM [rising, single point]. For the compound `CCN1CCN(CCCN(Cc2ccco2)C(=S)Nc2cccc(Cl)c2C)CC1`, the cell number change is -18.7%. Further, the AC50 under setting [1] is 0.82 µM [falling, full curve, poor fit]. Also, the AC50 under setting [2] is 0.82 µM [falling, full curve, poor fit]. With `CCOc1cc(C(=O)Nc2nnc(CC)s2)ccc1OCC(=O)N1CCOCC1`, the cell number change is -0.883%. Further, the AC50 under setting [2] is 7.31 µM [rising, partial curve, poor fit]. Take `CCc1ccc(N2CCN(CCNC(=O)Nc3ccc(OC)cc3)CC2)cc1`: the cell number change is -20.1%. As to `COc1cc(-c2nnc(-c3ccc(N4CCOCC4)cc3)o2)cc(OC)c1OC`, the cell number change was -30.7%. In addition, the AC50 under setting [1] was 2.06 µM [falling, full curve, poor fit]. The AC50 under setting [2] was 8.2 µM [falling, partial curve, poor fit]. In the case of `Cc1ccc(S(=O)(=O)NC(C)(C)CN2CCC(Cc3ccccc3)CC2)cc1`, the cell number change was -34%. Further, the AC50 under setting [1] is 8.2 µM [falling, partial curve]. Under setting [2], the AC50 was 32.6 µM [falling, single point]. As to `Cc1cc(C)n2c(Nc3ccc4c(c3)OCCO4)c(-c3ccco3)nc2n1`, the cell number change is 7.98%. Moreover, under setting [2], the AC50 is 0.58 µM [rising, full curve]. Turning to `Cc1cccc(NC(=O)CN(C)S(=O)(=O)c2cccc3cccnc23)c1C`, the cell number change was 10%. Under setting [2], the AC50 was 29.1 µM [rising, partial curve, poor fit]. Consider `Cc1cccc(-c2nc(=S)c3c(o2)CCCC3)c1`, for which the cell number change was determined as 28.4%. Moreover, the AC50 under setting [2] is 6.51 µM [rising, partial curve, poor fit]. On to `COC(=O)c1ccc(Cl)c(NC(=O)c2ccc(-c3ccccc3)cc2)c1`, for which the cell number change was -37.4%. For the same compound, the AC50 under setting [1] is 25.9 µM [falling, single point]. For the same compound, under setting [2], the AC50 is 18.4 µM [falling, partial curve, poor fit]. `COc1ccc(OC)c(S(=O)(=O)Nc2cccc(-c3ccc(N4CCCCCC4)nn3)c2)c1`: the cell number change is -20%. Moreover, under setting [2], the AC50 was 6.51 µM [falling, single point]. On to `Cc1ccc(CNC(=O)c2cn(C)c3ccc(S(=O)(=O)N4CCOCC4)cc3c2=O)cc1`, for which the cell number change is -14.7%. Under setting [2], the AC50 is 6.51 µM [falling, single point]. For the compound `CCCCCCN(C(=O)CCl)c1ccccc1`, the cell number change is -16.5%. The AC50 under setting [2] is 4.11 µM [rising, partial curve]. As to `CN(CC(=O)Nc1c(Cl)cccc1Cl)C(=O)c1cccc(-n2cccc2)c1`, the cell number change is -19.3%. Besides, under setting [2], the AC50 was 29.1 µM [falling, single point]. In the case of `Cc1cc(C)nc(NC(=O)c2ccc(Cl)cc2)n1`, the cell number change was found to be 31.6%. Moreover, the AC50 under setting [1] was 0.13 µM [rising, full curve, poor fit]. For the same compound, the AC50 under setting [2] was 29.1 µM [rising, single point]. As to `Cc1ccc(NC(=O)COC(=O)Cn2cnc3c2c(=O)n(C)c(=O)n3C)c(Cl)c1`, the cell number change was -30.2%. In addition, the AC50 under setting [1] is 32.6 µM [falling, single point]. Also, the AC50 under setting [2] was 4.11 µM [rising, single point]. As to `CC(C)=CCN1CCN(Cc2nc(-c3ccc(F)cc3)cs2)CC1CCO` (stereo not given), under setting [2], the AC50 is 0.0731 µM [rising, full curve, poor fit].

In the case of `O=C(NCCc1ccncc1)C12CC3CC(CC(C3)C1)C2`, the cell number change was -38.7%. Also, the AC50 under setting [1] is 23.1 µM [falling, partial curve].

As to `CCCCc1nc2cc(C(=O)N(C)C3CCOCC3)ccc2o1`, the AC50 under setting [2] is 29.1 µM [rising, single point].
